Some of the results follow.
Key:
Test in all cases: log2 fold change, soluble protein after heating vs DMSO (PISA); higher = thermal stabilisation; K562 lysate, 10 uM; active = over 0.2 and 3.5 SD of the protein, either way, in both replicates (recomputed)
[1] = compound: CN1CC[C@H](c2c(O)cc(O)c3c(=O)cc(-c4ccccc4Cl)oc23)[C@H](O)C1 [alvocidib]
In short: (§1)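 A 30 min treatment with 10 μM compound was applied to crude K562 extract at 1 mg/mL protein in PBS pH 7.4 with 1 mM MgCl2. Heating for 3 min spanned 48°C-58°C, after which aliquots were pooled, adjusted to 0.5% NP-40 at 4°C and spun at 21,000xg for 90 min. TMTpro 16plex LC-MS/MS of the supernatant, with channel sums equalised, gave values recorded as log-two fold change in thermal stability against solvent controls, from duplicates.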

Chains of the proteins cited; added tags and fusions are not shown. Lines headed by an entry give the natural chain unless they say otherwise; changes in a name come on top.
UniProt O15211: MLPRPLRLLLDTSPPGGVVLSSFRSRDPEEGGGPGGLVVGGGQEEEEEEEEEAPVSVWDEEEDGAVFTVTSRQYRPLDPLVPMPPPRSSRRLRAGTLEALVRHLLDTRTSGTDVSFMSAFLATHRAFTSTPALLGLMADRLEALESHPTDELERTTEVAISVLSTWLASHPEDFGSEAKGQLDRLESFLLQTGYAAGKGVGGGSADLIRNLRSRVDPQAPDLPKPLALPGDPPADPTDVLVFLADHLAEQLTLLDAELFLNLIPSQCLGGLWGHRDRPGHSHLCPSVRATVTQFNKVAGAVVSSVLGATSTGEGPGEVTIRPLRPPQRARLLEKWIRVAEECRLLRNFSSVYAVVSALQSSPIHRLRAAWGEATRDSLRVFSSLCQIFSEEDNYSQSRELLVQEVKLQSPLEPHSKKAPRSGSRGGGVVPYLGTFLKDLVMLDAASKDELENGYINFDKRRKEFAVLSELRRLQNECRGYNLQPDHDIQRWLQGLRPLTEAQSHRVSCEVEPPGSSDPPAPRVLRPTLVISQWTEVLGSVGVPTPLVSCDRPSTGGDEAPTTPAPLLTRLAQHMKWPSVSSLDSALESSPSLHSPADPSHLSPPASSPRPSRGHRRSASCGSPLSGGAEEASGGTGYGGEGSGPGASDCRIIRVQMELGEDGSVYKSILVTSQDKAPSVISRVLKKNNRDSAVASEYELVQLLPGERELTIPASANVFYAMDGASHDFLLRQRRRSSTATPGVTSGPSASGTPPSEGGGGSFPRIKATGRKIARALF
UniProt P82980: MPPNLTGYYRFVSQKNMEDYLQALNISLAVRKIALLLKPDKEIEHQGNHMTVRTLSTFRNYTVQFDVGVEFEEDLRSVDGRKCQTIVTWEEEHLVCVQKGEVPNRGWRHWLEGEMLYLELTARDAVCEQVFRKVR
UniProt Q9HBD1: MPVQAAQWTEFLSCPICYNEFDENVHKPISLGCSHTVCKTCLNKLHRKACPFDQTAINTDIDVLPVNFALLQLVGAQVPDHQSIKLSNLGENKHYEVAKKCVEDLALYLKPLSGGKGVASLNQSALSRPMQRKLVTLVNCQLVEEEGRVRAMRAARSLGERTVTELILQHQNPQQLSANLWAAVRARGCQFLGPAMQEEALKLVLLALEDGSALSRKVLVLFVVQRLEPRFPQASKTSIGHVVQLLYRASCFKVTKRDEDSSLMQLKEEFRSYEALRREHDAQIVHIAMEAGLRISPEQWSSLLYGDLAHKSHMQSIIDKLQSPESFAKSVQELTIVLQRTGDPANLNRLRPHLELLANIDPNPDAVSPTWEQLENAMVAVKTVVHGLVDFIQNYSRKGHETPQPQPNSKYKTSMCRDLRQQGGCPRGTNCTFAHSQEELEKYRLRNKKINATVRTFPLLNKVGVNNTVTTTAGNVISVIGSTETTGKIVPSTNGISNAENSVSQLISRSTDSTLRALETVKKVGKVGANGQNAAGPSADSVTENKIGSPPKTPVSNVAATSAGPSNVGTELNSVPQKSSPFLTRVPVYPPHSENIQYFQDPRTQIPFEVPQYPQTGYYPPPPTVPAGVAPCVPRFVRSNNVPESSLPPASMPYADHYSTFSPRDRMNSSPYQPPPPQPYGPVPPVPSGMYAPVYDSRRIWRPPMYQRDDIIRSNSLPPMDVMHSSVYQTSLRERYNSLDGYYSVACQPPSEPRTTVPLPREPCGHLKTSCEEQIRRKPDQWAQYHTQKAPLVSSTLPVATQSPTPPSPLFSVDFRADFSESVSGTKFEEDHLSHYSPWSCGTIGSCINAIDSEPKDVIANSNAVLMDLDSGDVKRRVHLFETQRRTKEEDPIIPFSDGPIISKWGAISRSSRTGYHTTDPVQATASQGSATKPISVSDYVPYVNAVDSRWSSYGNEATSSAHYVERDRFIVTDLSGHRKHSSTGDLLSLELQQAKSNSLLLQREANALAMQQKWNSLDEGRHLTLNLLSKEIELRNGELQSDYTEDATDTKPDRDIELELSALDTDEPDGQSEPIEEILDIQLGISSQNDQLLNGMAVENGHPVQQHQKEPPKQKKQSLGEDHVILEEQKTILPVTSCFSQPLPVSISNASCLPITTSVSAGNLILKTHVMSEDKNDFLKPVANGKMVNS
UniProt Q9H0Z9: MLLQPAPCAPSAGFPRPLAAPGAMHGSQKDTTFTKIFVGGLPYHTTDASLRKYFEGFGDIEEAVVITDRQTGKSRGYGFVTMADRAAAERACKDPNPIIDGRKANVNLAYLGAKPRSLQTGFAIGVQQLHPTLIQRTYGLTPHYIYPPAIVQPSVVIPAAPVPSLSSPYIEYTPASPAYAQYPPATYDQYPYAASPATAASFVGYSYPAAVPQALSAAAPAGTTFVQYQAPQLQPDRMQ
UniProt Q96EN9: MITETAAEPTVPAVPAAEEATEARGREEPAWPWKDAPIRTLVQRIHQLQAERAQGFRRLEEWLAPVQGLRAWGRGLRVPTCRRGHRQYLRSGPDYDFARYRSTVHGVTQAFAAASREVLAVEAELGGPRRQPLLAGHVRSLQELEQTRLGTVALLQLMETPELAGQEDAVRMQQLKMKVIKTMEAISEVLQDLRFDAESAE
UniProt O43251: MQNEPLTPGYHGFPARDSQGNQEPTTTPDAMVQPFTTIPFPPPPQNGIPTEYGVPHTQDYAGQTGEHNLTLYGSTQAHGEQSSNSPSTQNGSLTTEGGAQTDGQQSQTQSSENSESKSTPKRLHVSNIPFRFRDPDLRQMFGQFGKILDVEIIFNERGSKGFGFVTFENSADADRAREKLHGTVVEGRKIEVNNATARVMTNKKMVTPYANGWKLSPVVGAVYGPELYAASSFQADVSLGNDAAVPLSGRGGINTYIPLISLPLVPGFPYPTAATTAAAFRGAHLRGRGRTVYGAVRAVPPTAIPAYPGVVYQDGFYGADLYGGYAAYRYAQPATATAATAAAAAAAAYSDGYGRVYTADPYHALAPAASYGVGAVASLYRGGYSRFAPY
UniProt Q8N1G1: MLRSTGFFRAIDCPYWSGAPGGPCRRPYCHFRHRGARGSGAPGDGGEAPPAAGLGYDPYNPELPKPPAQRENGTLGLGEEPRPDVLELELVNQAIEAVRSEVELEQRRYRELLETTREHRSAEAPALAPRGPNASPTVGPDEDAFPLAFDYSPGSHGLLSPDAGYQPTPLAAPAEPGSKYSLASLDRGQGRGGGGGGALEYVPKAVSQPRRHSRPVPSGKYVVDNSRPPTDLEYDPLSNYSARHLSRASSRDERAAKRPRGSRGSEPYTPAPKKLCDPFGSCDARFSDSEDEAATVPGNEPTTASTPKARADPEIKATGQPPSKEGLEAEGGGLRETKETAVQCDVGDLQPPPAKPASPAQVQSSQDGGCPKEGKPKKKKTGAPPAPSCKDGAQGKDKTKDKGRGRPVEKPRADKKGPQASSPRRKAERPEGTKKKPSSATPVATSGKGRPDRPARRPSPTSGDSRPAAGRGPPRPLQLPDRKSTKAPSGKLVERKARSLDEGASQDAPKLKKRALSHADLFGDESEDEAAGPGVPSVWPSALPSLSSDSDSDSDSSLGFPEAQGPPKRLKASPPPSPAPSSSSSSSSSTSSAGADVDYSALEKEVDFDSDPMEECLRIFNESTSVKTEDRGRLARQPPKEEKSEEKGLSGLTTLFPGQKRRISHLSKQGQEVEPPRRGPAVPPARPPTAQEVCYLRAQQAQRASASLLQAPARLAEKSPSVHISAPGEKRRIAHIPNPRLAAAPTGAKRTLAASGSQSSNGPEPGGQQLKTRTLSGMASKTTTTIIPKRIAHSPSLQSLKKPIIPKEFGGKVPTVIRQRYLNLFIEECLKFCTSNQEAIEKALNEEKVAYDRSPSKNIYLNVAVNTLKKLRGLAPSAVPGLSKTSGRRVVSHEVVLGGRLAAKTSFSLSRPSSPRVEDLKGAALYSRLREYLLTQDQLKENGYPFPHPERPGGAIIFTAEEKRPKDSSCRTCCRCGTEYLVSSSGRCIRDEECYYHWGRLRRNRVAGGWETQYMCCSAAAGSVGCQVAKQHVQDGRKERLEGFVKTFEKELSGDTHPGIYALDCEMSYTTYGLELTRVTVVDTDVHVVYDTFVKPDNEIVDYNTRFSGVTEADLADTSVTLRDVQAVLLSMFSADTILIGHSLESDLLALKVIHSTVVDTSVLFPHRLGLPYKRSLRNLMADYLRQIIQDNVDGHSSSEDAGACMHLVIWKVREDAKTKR
UniProt Q86WH2: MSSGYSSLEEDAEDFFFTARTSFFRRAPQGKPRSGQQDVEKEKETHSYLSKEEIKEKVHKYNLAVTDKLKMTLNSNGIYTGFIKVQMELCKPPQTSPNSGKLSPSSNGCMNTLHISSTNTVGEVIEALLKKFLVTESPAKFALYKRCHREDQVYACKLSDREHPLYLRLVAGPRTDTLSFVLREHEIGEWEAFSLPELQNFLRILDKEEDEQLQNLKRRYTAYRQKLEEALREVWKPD
UniProt Q9HCM1: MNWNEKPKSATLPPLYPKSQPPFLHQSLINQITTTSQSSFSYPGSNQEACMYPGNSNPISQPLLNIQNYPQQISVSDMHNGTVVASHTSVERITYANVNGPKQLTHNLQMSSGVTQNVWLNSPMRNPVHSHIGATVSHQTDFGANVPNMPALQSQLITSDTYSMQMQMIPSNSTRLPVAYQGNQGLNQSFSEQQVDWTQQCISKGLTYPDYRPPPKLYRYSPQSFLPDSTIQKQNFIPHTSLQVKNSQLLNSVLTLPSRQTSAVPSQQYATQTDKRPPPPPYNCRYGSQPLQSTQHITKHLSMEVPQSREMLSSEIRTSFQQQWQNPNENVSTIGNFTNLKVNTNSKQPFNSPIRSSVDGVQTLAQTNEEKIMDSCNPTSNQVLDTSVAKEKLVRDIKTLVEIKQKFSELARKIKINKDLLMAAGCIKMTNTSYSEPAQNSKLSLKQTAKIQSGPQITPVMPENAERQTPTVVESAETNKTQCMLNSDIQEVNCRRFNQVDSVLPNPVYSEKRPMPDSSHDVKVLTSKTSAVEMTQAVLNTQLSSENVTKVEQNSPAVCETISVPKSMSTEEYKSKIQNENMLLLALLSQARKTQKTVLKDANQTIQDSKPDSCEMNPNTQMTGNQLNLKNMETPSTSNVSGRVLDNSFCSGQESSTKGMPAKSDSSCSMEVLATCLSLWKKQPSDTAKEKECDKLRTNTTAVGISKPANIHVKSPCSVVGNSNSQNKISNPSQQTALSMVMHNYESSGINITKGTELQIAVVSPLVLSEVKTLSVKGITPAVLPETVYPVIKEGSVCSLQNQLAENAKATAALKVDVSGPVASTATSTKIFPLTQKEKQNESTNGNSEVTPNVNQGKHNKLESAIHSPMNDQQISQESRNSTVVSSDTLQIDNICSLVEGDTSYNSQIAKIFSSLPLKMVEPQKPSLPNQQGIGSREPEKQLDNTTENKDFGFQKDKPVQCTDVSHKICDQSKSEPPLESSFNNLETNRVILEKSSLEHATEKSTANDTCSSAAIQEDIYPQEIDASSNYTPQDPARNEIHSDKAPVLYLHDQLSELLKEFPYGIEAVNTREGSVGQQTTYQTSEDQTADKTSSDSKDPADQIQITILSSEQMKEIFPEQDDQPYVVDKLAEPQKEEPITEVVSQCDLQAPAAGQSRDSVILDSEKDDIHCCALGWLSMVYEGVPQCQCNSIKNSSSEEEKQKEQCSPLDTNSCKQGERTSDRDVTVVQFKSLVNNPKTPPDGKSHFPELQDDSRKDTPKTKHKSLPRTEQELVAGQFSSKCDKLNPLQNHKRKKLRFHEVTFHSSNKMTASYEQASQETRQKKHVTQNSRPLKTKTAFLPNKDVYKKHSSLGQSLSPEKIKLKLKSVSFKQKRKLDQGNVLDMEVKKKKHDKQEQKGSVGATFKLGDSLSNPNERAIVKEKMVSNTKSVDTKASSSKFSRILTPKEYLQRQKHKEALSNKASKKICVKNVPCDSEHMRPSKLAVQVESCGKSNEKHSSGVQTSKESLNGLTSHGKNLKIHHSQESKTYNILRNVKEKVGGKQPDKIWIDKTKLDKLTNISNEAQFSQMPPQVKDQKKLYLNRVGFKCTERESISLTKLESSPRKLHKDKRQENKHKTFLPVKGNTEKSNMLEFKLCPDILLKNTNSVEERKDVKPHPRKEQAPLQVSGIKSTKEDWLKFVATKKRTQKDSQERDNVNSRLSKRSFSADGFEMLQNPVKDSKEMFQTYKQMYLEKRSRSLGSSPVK
UniProt P62877, whole entry, looked up: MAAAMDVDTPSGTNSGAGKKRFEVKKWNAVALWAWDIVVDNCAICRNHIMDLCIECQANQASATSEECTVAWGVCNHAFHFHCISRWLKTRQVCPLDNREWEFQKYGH
UniProt P49795: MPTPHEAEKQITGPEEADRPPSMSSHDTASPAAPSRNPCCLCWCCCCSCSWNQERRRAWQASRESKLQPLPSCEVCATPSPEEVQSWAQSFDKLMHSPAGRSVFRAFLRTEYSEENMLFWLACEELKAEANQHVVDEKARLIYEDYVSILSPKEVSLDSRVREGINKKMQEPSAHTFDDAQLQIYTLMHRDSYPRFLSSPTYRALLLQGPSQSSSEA

[2] = compound: CN1CCc2c(c3ccccc3n2Cc2ccc(C(=O)NO)cc2)C1 [Tubastatin A]
In short: as §1

[3] = compound: CNC(=O)C1=CC=CC=C1NC2=NC(=NC=C2Cl)NC3=C(C=C(C=C3)N4CCOCC4)OC
In short: as §1

[4] = compound: CNc1nc(-c2ccc3c(N)n[nH]c3c2)cc(N2C[C@@H](C(=O)NC3CCCCC3)CC[C@H]2C)n1
In short: as §1

[5] = compound: COc1cc(Nc2ncc3c(n2)-c2ccc(Cl)cc2C(c2c(F)cccc2OC)=NC3)ccc1C(=O)O [alisertib]
In short: as §1

[6] = compound: COc1cc2nc(-c3cc(F)ccc3O)nc(N[C@@H]3CNC[C@H]3C(C)(C)O)c2cc1OC
In short: as §1

[7] = compound: COc1cc2ncnc(Nc3ccc(F)c(Cl)c3)c2cc1OCCCN1CCOCC1 [gefitinib]
In short: as §1

[8] = compound: CS(=O)(=O)CCNCc1ccc(-c2ccc3ncnc(Nc4ccc(OCc5cccc(F)c5)c(Cl)c4)c3c2)o1 [lapatinib]
In short: as §1

[9] = compound: C[C@@H](Oc1cc(-c2cnn(C3CCNCC3)c2)cnc1N)c1c(Cl)ccc(F)c1Cl [crizotinib]
In short: as §1

[10] = compound: C[C@H](C1=CC=C(C=C1)C(=O)NC2=C3C=CNC3=NC=C2)N
In short: as §1

[11] = compound: C[C@H](Nc1ncnc2nc[nH]c12)c1cc2cccc(Cl)c2c(=O)n1-c1ccccc1 [duvelisib]
In short: as §1

[12] = compound: Cc1cc(Nc2cc(CN3CCOCC3)c3nc(C)c(Cc4ccc(Cl)cc4F)n3n2)n[nH]1 [gandotinib]
In short: as §1

[13] = compound: Cc1ccc(-n2nc(C(C)(C)C)cc2NC(=O)Nc2ccc(OCCN3CCOCC3)c3ccccc23)cc1 [doramapimod]
In short: as §1

[14] = compound: Cc1cccc(CC(=O)N2CCc3c2ccc(-c2cn(C)c4ncnc(N)c24)c3F)n1
In short: as §1

[15] = compound: CNC(=O)c1ccc(Nc2ncc(C(F)(F)F)c(NCc3nccnc3N(C)S(C)(=O)=O)n2)cc1 [defactinib]
In short: as §1

[16] = compound: COC(=O)N[C@@H](C)CNc1nccc(-c2cn(C(C)C)nc2-c2cc(Cl)cc(NS(C)(=O)=O)c2F)n1 [encorafenib]
In short: as §1

[17] = compound: COC(=O)[C@H](CCSC)NC(=O)C1=C(C=C(C=C1)NC[C@H](CS)N)C2=CC=CC=C2
In short: as §1

[18] = compound: Cc1cc(Nc2cc(N3CCN(C)CC3)nc(Sc3ccc(NC(=O)C4CC4)cc3)n2)n[nH]1 [tozasertib]
In short: as §1

[19] = compound: CS(=O)(=O)N1CCN(Cc2cc3nc(-c4cccc5[nH]ncc45)nc(N4CCOCC4)c3s2)CC1 [pictilisib]
In short: as §1

[20] = compound: Cc1ccc(NC(=O)c2ccc(CN3CC[C@H](N(C)C)C3)c(C(F)(F)F)c2)cc1Nc1nccc(-c2cncnc2)n1 [bafetinib]
In short: as §1

Measured: log2 fold change

RGL2 (UniProt O15211)
inactive: [1] 0.05 | [2] 0.098 | [3] 0.034 | [4] 0.139 | [5] -0.005 | [6] 0.065 | [7] 0.228 | [8] -0.168 | [9] 0.026 | [10] 0.057 | [11] 0.069 | [12] -0.108 | [13] -0.043 | [14] 0.169

RBP5 (UniProt P82980)
inactive: [1] -0.27 | [2] -0.04 | [3] 0.019 | [15] 0.021 | [4] 0.184 | [16] 0.173 | [17] 0.021 | [5] -0.085 | [6] -0.044 | [7] -0.07 | [8] -0.051 | [9] 0.092 | [10] -0.207 | [11] 0.032 | [12] 0.136 | [18] -0.025 | [13] 0.135 | [14] -0.051

RBM47
inactive: [1] -0.131 | [2] 0.206 | [3] 0.19 | [15] -0.178 | [4] -0.112 | [5] 0.462 | [6] 0.136 | [7] -0.005 | [8] -0.046 | [10] -0.222 | [11] 0.09 | [12] 0.112 | [14] 0.275

RC3H2 (UniProt Q9HBD1)
inactive: [1] -0.011 | [2] -0.21 | [15] 0.085 | [4] -0.062 | [16] 0.091 | [17] -0.165 | [6] -0.001 | [8] -0.16 | [9] 0.017 | [10] -0.051 | [11] 0.003 | [12] 0.031 | [18] 0.119 | [13] -0.002 | [14] 0.21

RBM38 (UniProt Q9H0Z9)
inactive: [1] 0.036 | [2] 0.071 | [3] 0.062 | [15] -0.057 | [4] -0.055 | [16] 0.084 | [17] -0.049 | [5] 0.05 | [6] -0.023 | [7] -0.067 | [8] 0.084 | [9] 0.101 | [10] -0.014 | [11] -0.073 | [12] -0.001 | [18] 0.055 | [13] 0.133 | [14] -0.002

REX1BD (UniProt Q96EN9)
inactive: [1] 0.008 | [2] -0.004 | [3] -0.016 | [4] 0.101 | [16] 0.074 | [17] 0.124 | [5] 0.062 | [7] -0.163 | [9] -0.061 | [10] 0.076 | [11] 0.055 | [12] -0.084 | [18] -0.052 | [13] -0.003 | [14] -0.167

RBMY1E (UniProt A6NEQ0)
inactive: [1] -0.105 | [15] 0.061 | [4] -0.02 | [16] -0.044 | [17] 0.03 | [6] -0.063 | [8] 0.06 | [19] -0.006 | [9] -0.285 | [10] -0.204 | [11] -0.001 | [12] 0.014 | [18] -0.047 | [13] 0.181 | [20] 0.027 | [14] 0.12

RBFOX2 isoform 8 (UniProt O43251)
inactive: [1] 0.019 | [2] -0.046 | [3] 0.237 | [4] 0.111 | [16] -0.035 | [17] 0.174 | [6] -0.029 | [8] -0.137 | [19] 0.016 | [9] 0.17 | [10] 0.108 | [11] 0.021 | [12] -0.157 | [18] 0.074 | [13] -0.185 | [20] -0.175 | [14] 0.115

REXO1 (UniProt Q8N1G1)
inactive: [1] 0.043 | [2] -0.135 | [3] 0.138 | [5] 0.023 | [7] -0.143 | [19] 0.017 | [9] 0.033 | [10] -0.068 | [12] 0.02 | [13] -0.105 | [20] -0.428 | [14] 0.078

RASSF3 (UniProt Q86WH2)
inactive: [1] 0.024 | [6] 0.094 | [8] 0.05 | [9] 0.043 | [10] 0.042 | [12] 0.085 | [13] -0.005 | [14] 0.141

REV3L (UniProt O60673)
inactive: [2] 0.053 | [3] -0.028 | [15] -0.051 | [4] 0.312 | [16] -0.072 | [17] -0.124 | [5] 0.039 | [6] 0.247 | [7] -0.148 | [8] -0.047 | [19] -0.089 | [9] -0.086 | [11] 0.037 | [18] -0.315 | [13] 0.251 | [20] -0.139

RESF1 (UniProt Q9HCM1)
inactive: [2] -0.016 | [4] -0.048 | [16] 0.021 | [17] 0.137 | [9] 0.099 | [11] -0.001 | [18] 0.065 | [13] -0.349

RBX1 (UniProt P62877)
inactive: [2] 0.09 | [3] 0.037 | [15] 0.025 | [4] 0.035 | [16] -0.025 | [17] -0.026 | [5] 0.079 | [6] -0.187 | [7] -0.045 | [8] 0.468 | [19] 0.083 | [9] -0.075 | [11] -0.143 | [18] -0.041 | [13] 0.499 | [20] 0.372

RGS19 (UniProt P49795)
inactive: [1] -0.012 | [5] -0.005 | [7] -0.019 | [9] -0.098 | [10] -0.065 | [12] 0.028 | [13] -0.075 | [14] -0.19

Source: the supplement of paper PMC10849652
